PubChem BioAssay AID743121, NCATS – 2013

Purpose: 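Partners whose loss is lethal together with topoisomerase I blockade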 (primary screen)
System: MDA-MB-231 cells, a human breast cancer line
Knock-down reagent: single siRNA against human genes, 20 nM siRNA (0.8 pmol per well)
Timing: 120 h (drug added 48 h after transfection, read 72 h later)
Conditions: camptothecin 20 nM (about EC30) for 72 h; vehicle 0.1% DMSO in parallel plates
Measurement: 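CellTiter-Glo ATP signal, scaled to control siRNA as percent viability; sensitisation given as log2 of untreated divided by camptothecin-treated viability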
Reading the numbers: log2 vehicle/camptothecin viability: higher = stronger sensitisation to camptothecin
Call rule: 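Active genes have an RSA gene-level p-value below 0.001, computed from the ratios of their separate siRNAs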
The deposit covers about 26,000 reagents; shown is a random part of them. Over the whole deposit, 167 (0.63%) got an active call. 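Calls are per gene from RSA p-values that are not deposited; an individual active-marked siRNA can sensitise only weakly.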 The numbers tell different reagents against one gene apart. Not all columns of the deposit are shown.

Which result is listed for CDC50A #1?
log2 vehicle/camptothecin viability: -0.106; activity call: inactive

What is on record for CDC50A #2?
log2 vehicle/camptothecin viability: -0.178; activity call: inactive

Which result is listed for CDC50A #3?
log2 vehicle/camptothecin viability: 0.147; activity call: inactive

With CDC50A #4, what does the deposit list?
log2 vehicle/camptothecin viability: 0.276; activity call: inactive

How did the screen score DHFR2 #1?
log2 vehicle/camptothecin viability: -0.286; activity call: inactive

Which result is listed for DHFR2 #2?
log2 vehicle/camptothecin viability: 0.0568; activity call: inactive

Which result is listed for DHFR2 #3?
log2 vehicle/camptothecin viability: -0.476; activity call: inactive

With DHFR2 #4, what was measured?
log2 vehicle/camptothecin viability: 0.0332; activity call: inactive

With SELL #1, how do the results read?
log2 vehicle/camptothecin viability: 0.326; activity call: inactive

With SELL #2, what was measured?
log2 vehicle/camptothecin viability: 0.338; activity call: inactive

With SELL #3, what does the deposit list?
log2 vehicle/camptothecin viability: -0.461; activity call: inactive

For TLCD3A #1, what does the deposit list?
log2 vehicle/camptothecin viability: -0.288; activity call: inactive

For TLCD3A #2, how do the results read?
log2 vehicle/camptothecin viability: 0.0129; activity call: inactive

For TLCD3A #3, what does the deposit list?
log2 vehicle/camptothecin viability: -0.126; activity call: inactive

With TLCD3A #4, what was measured?
log2 vehicle/camptothecin viability: -0.107; activity call: inactive

With CES5A #1, what does the deposit list?
log2 vehicle/camptothecin viability: -0.00107; activity call: inactive

For CES5A #2, how do the results read?
log2 vehicle/camptothecin viability: 0.101; activity call: inactive

What did the screen give for CES5A #3?
log2 vehicle/camptothecin viability: -0.167; activity call: inactive

For CES5A #4, what was measured?
log2 vehicle/camptothecin viability: -0.246; activity call: inactive

Which result is listed for EZH1 #1?
log2 vehicle/camptothecin viability: 0.13; activity call: inactive

What did the screen give for EZH1 #2?
log2 vehicle/camptothecin viability: 0.3; activity call: inactive

What did the screen give for EZH1 #3?
log2 vehicle/camptothecin viability: -0.266; activity call: inactive

Which result is listed for EZH1 #4?
log2 vehicle/camptothecin viability: 0.0388; activity call: inactive

How did the screen score RNF26 #1?
log2 vehicle/camptothecin viability: -0.065; activity call: inactive

Which result is listed for RNF26 #2?
log2 vehicle/camptothecin viability: 0.188; activity call: inactive

For RNF26 #3, what was measured?
log2 vehicle/camptothecin viability: -0.188; activity call: inactive

For RNF26 #4, what does the deposit list?
log2 vehicle/camptothecin viability: -0.16; activity call: inactive

No new results follow: 2 of the entries above.
EZH1 #4 → log2 vehicle/camptothecin viability = 0.0388; activity call = inactive
RNF26 #1 → log2 vehicle/camptothecin viability = -0.065; activity call = inactive
